Measurements as given in patent US20260271924A1, “COMPOSITIONS FOR MODULATING PLANT GROWTH AND STRESS TOLERANCE, AND METHODS OF USE THEREOF” (The Regents of the University of California, priority 2023, published 2026).

System: Arabidopsis root
Assay: RNA-seq analysis of Arabidopsis roots
Format: in vivo, Arabidopsis thaliana
Conditions: 50 μM 4-OI, short term (6 hour)

## C=C(CC(=O)OCCCCCCCC)C(=O)O [4-OI, 4-octyl itaconate]
  genes downregulated: 1028 genes
  genes upregulated: 814 genes
